46 compounds from the supplement of paper PMC7830784 can be followed below.

Counter-ions that a name gives are not always drawn. The list shows a part of the results. This data set is noisy: repeats of one test often differ as much as different tests do.

This assay has as its system Brugia pahangi adult female. In words: motility inhibition on day 3 relative to DMSO vehicle; higher = more active. The conditions noted are these: 10 µM; 3 days.
With `COC(=O)C1=C(C)NC(C)=C(C(=O)OC)C1c1ccccc1[N+](=O)[O-]` [Nifedipine], the “motility inhibition on day 3” value came out at 9.97%.

In the case of `C#C[C@]1(O)CC[C@H]2[C@@H]3CCC4=CC(=O)CC[C@@H]4[C@H]3CC[C@@]21C` [norethindrone], the “motility inhibition on day 3” value stood at 15.5%. On to `O=C1CC[C@@H](C(=O)O)N1` [pidolic acid], for which the “motility inhibition on day 3” value was 35.6%.

Regarding `CO[C@@]1(NC(=O)C(C(=O)O)c2ccc(O)cc2)C(=O)N2C(C(=O)O)=C(CSc3nnnn3C)CO[C@@H]21` (stereo partly specified) [moxalactam disodium], the “motility inhibition on day 3” value is 2.98%. The result for `Nc1ccc(S(=O)(=O)Nc2ncccn2)cc1` [sulfadiazine] reads less than 0%; that for `C#C[C@]1(OC(C)=O)CC[C@H]2[C@@H]3CCC4=C[C@@H](OC(C)=O)CC[C@@H]4[C@H]3CC[C@@]21C` [ethynodiol diacetate], 25.5%; that for `OC[C@@H](O)[C@@H](O)CO` [erythritol], 15.6%. For the compound `CC(=O)OC/C=C(C)/C=C/C=C(C)/C=C/C1=C(C)CCCC1(C)C` [retinyl acetate], the “motility inhibition on day 3” value was less than 0%. The figure for `NS(=O)(=O)c1cc2c(cc1Cl)N=C(CSCc1ccccc1)NS2(=O)=O` [benzthiazide] is 2.41%; for `CCCCC(=O)OCC(=O)[C@]1(O)Cc2c(O)c3c(c(O)c2[C@@H](O[C@H]2C[C@H](NC(=O)C(F)(F)F)[C@H](O)[C@H](C)O2)C1)C(=O)c1c(OC)cccc1C3=O` [Valrubicin] it is 10.3%. The result for `O=C1C(CC[S+]([O-])c2ccccc2)C(=O)N(c2ccccc2)N1c1ccccc1` (stereo unspecified) [sulfinpyrazone] reads less than 0%.

For `C[C@@H]1CC(=O)NN=C1c1ccc(NN=C(C#N)C#N)cc1` [levosimendan], the “motility inhibition on day 3” value came to 2.52%. With `C[C@@H](c1ncncc1F)[C@](O)(Cn1cncn1)c1ccc(F)cc1F` [voriconazole], the “motility inhibition on day 3” value came to 3.04%. The figure for `O=C(O)Cc1ccccc1Nc1c(Cl)cccc1Cl` [Diclofenac sodium] is 6.2%; for `C[C@]12C=CC(=O)C=C1CC[C@@H]1[C@@H]2[C@@H](O)C[C@@]2(C)[C@H]1CC[C@]2(O)C(=O)CO` [prednisolone] it is less than 0%; for `O=c1[nH]cc(F)c(=O)[nH]1` [fluorouracil] it is 39.3%. The result for `CS(=O)(=O)c1ccc([C@@H](O)[C@@H](CO)NC(=O)C(Cl)Cl)cc1` [thiamphenicol] reads 12.1%; that for `CC(C)Cc1ccc([C@H](C)C(=O)O)cc1` [dexibuprofen], 2.68%.

`N=c1ccn2c(n1)O[C@H]1[C@H](O)[C@@H](CO)O[C@H]12` [ancitabine hydrochloride]: the “motility inhibition on day 3” value was determined as 5.35%. The figure for `CC(=O)Oc1c(C)cccc1C(=O)O` [cresopyrine] is 13.6%; for `COC(=O)[C@H]1[C@H]2C[C@@H]3c4[nH]c5cc(OC)ccc5c4CCN3C[C@H]2C[C@@H](OC(=O)c2cc(OC)c(OC)c(OC)c2)[C@@H]1OC` [reserpine] it is less than 0%; for `CNC(=C[N+](=O)[O-])NCCSCc1ccc(CN(C)C)o1` [Ranitidine hydrochloride] it is 1.8%. The result for `CCCc1nc(C)c2c(O)nc(-c3cc(S(=O)(=O)N4CCN(CC)CC4)ccc3OCC)nn12` [vardenafil hydrochloride] reads 3.07%. The figure for `N[C@H](Cc1ccccc1)C(=O)O` [d-phenylalanine] is less than 0%.

Consider `CNC[C@H](O)c1cccc(O)c1` [Phenylephrine hydrochloride], for which the “motility inhibition on day 3” value stood at 9.01%. The result for `CN1C(=O)CC(C)(c2ccccc2)C1=O` (stereo unspecified) [methsuximide] reads 9.63%. In the case of `CCN(CC)CCNC(=O)c1ccc(NC(C)=O)cc1` [N-Acetylprocainamide hydrochloride], the “motility inhibition on day 3” value was less than 0%. The figure for `CCOC(=O)[C@H](CCc1ccccc1)N[C@@H](C)C(=O)N1[C@H](C(=O)O)C[C@H]2CCCC[C@@H]21` [trandolapril] is 2.16%; for `CC(C)(CO)[C@@H](O)C(=O)NCCCO` [dexpanthenol] it is 14.2%. The result for `NS(=O)(=O)c1ccc(C(=O)O)cc1` [carzenide] reads 38.4%. The figure for `CO[C@H]1C[C@@H]2CC[C@@H](C)[C@@](O)(O2)C(=O)C(=O)N2CCCC[C@H]2C(=O)O[C@H]([C@H](C)C[C@@H]2CC[C@@H](O)[C@H](OC)C2)CC(=O)[C@H](C)/C=C(\C)[C@@H](O)[C@@H](OC)C(=O)[C@H](C)C[C@H](C)/C=C/C=C/C=C/1C` [sirolimus] is 13.8%; for `CCOc1ccccc1C(N)=O` [ethenzamide] it is less than 0%; for `CC(=O)N1CCN(c2ccc(OCC3COC(Cn4ccnc4)(c4ccc(Cl)cc4Cl)O3)cc2)CC1` (stereo unspecified) [ketoconazole] it is less than 0%. In the case of `CN(CCOc1ccc(NS(C)(=O)=O)cc1)CCc1ccc(NS(C)(=O)=O)cc1`, the “motility inhibition on day 3” value was less than 0%. The figure for `N=C(N)NCCC[C@@H](NC(=O)[C@@H]1CCCN1C(=O)[C@@H]1CSSCCC(=O)N[C@@H](Cc2ccc(O)cc2)C(=O)N[C@@H](Cc2ccccc2)C(=O)N[C@@H](CCC(N)=O)C(=O)N[C@@H](CC(N)=O)C(=O)N1)C(=O)NCC(N)=O` [Desmopressin] is less than 0%; for `C#C[C@]1(O)CC[C@H]2[C@@H]3CCc4cc(OC)ccc4[C@H]3CC[C@@]21C` [mestranol] it is 23.6%; for `CC(C)NCC(O)c1ccc(NS(C)(=O)=O)cc1` (stereo unspecified) [sotalol hydrochloride] it is less than 0%. The result for `CCCCCCCCCCCCCCCC[N+](C)(C)CCN(Cc1ccc(OC)cc1)c1ncccn1` [thonzonium bromide] reads 99.3%; that for `O=C(O)P(=O)(O)O` [foscarnet sodium], 5.21%; that for `CCN(CC)CCCC(C)Nc1c2ccc(Cl)cc2nc2ccc(OC)cc12` (stereo unspecified) [Quinacrine dihydrochloride], 31.2%. The figure for `Cc1nc(C)c(Cl)c(O)c1Cl` [clopidol] is 17.9%.

On to `C[C@@H]1CN(c2c(F)c(N)c3c(=O)c(C(=O)O)cn(C4CC4)c3c2F)C[C@H](C)N1` [Sparfloxacin], for which the “motility inhibition on day 3” value was less than 0%. The figure for `C[C@@H]1CN(c2c(F)c(N)c3c(=O)c(C(=O)O)cn(C4CC4)c3c2F)C[C@H](C)N1` [sparfloxacin] is 6.75%; for `Cc1ccc(S(=O)(=O)NCl)cc1` [chloramine-t] it is less than 0%. The figure for `CCn1cc(C(=O)O)c(=O)c2cc(F)c(N3CCN(C)CC3)cc21` [pefloxacine mesylate] is 5.87%. The figure for `CNC(=C[N+](=O)[O-])NCCSCc1csc(CN(C)C)n1` [nizatidine] is 25.1%.
